Assay results from US20110021746A1 (published 2011).
Where a chain is given by its changes, count along the chain named. No constants are given. Whether binding was seen depends on the method and setting. Some results given as binding are weak or reduced against the parent protein; the word gives no strength.

The chains behind the UniProt entries cited, without tags or fusion partners. Residues count along the entry.
UniProt P30530, residues 26-449: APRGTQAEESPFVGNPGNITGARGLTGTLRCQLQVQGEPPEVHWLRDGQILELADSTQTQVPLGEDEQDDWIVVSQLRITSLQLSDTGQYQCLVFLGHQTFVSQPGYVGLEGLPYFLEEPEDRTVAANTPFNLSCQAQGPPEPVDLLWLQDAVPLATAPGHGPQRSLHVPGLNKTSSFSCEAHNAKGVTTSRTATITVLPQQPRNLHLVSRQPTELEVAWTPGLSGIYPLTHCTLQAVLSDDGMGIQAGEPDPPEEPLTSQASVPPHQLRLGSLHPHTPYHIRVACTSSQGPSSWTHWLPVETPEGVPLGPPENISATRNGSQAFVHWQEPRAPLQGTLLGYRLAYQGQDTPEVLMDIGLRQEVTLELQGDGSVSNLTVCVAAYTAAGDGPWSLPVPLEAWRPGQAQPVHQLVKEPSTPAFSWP

Molecular target: Axl (UniProt P30530)
Assay: phage display selection

B1: SEQ ID NO 433 (designed binder)
chain: NVSPPRRARVTDATETTITIRWALPRSEFTRFQVDAVPANGQTPIQRTITSNIRGYTITGLQPGTDYKIYLYTLNDNARSSPVVIDAST
With B1 the binding was “binds”.

B2: SEQ ID NO 434 (designed binder)
chain: NVSPPRRARVTDATETTITIRWQQYINGFQVDAVPANGQTPIQRTIARDAPTYTITGLQPGTDYKIYLYTLNDNARSSPVVIDAST
With B2 the binding was “binds”.

B3: SEQ ID NO 435 (designed binder)
chain: NVSPPRRARVTDATETTITIRWQLPGFQVDAVPANGQTPIQRTIKRAANVYTITGLQPGTDYKIYLYTLNDNARSSPVVIDAST
With B3 the binding was “binds”.

B4: SEQ ID NO 436 (designed binder)
chain: NVSPPRRARVTDATETTITIRWELPAGTVNGFQVDAVPANGQTPIQRTIKGAKRGYTITGLQPGTDYKIYLYTLNDNARSTPVVIDAST
For B4, the binding was “binds”.

B5: SEQ ID NO 437 (designed binder)
chain: B2 chain with Q23K, Q24L, Y25P, I26E, N27G, G28D, A47K, D49N, P51S
For B5, the binding was “binds”.

B6: SEQ ID NO 438 (designed binder)
chain: B3 chain with Q23G, L24I, A48I, N49S, V50A
For B6, the binding was “binds”.

B7: SEQ ID NO 439 (designed binder)
chain: B3 chain with Q23G, L24V, P25L, A48I, V50S
In the case of B7, the binding is reported as “binds”.

B8: SEQ ID NO 440 (designed binder)
chain: B3 chain with Q23K, L24V, K45T, A47G, A48V, N49R, V50G
For B8, the binding was “binds”.

B9: SEQ ID NO 441 (designed binder)
chain: NVSPPRRARVTDATETTITISWRTKTETITGFQVDAVPANGQTPIQRTINSAAHSYTITGLQPGTDYKIYLYTLTGYGVGAVGSSPVVIDAST
For B9, the binding was “binds”.

B10: SEQ ID NO 442 (designed binder)
chain: NVSPPRRARVTDATETTITISWKVAPSTVVGFQVDAVPANGQTPIQRTIKPDVRSYTITGLQPGTDYKIYLYTLNVFGGSAYSSSPVVIDAST
In the case of B10, the binding is reported as “binds”.

B11: SEQ ID NO 443 (designed binder)
chain: B9 chain with A52S, T75N, A81T, V82L, G83A
For B11, the binding was “binds”.

B12: SEQ ID NO 444 (designed binder)
chain: B3 chain with Q23K, L24V, P25D, K45T, A47G, A48V, N49R
B12 was tested, and the binding was “binds”.

B13: SEQ ID NO 445 (designed binder)
chain: NVSPPRRARVTDATETTITIRWGAFTGFQVDAVPANGQTPIQRTIKSDIHGYTITGLQPGTDYKIYLYTLNDNARSSPVVIDAST
B13 was tested, and the binding was “binds”.

B14: SEQ ID NO 446 (designed binder)
chain: NVSPPRRARVTDATETTITISWRRSGSEVTRFQVDAVPANGQTPIQRTIARSITVYTITGLQPGTDYKIYLYTLNDNARSSPVVIDAST
For B14, the binding was “binds”.

B15: SEQ ID NO 447 (designed binder)
chain: B1 chain with R26Q, E28T, S51T
In the case of B15, the binding is reported as “binds”.

B16: SEQ ID NO 448 (designed binder)
chain: B3 chain with Q23E, L24A, P25V, A47N, A48V, N49T
With B16 the binding was “binds”.

B17: SEQ ID NO 449 (designed binder)
chain: NVSPPRRARVTDATETTITISWRTKTETITGFQVDAVPANGQTLIQRTITASVSSYTITGLQPGTDYKIYLYTLSEYEETSSPVVIDAST
B17 was tested, and the binding was “binds”.
